For at least one entry, the source does not settle the construct or the ends of the probe. For part of these data: The comparison behind a weaker result is the experiment's own reference, which may not be listed here. For part of these data: Tags and fusion partners may be left off the protein sequences shown.
Tests used:
Experiment in all cases: EMSA
GST-GmPHD1 (Glycine max) = settings: reduced by 10x unlabeled probe; probe annealed in 50 mM NaCl; competitor in ten-fold excess; recombinant protein; protein details: GST (N-term, pGEX-4T-1)
GST-GmPHD2 (Glycine max) = settings: reduced by 10x unlabeled probe; probe annealed in 50 mM NaCl; competitor in ten-fold excess; recombinant protein; protein details: GST (N-term, pGEX-4T-1)
GST-GmPHD3 (Glycine max) = settings: reduced by 10x unlabeled probe; probe annealed in 50 mM NaCl; competitor in ten-fold excess; recombinant protein; protein details: GST (N-term, pGEX-4T-1)
GST-GmPHD4 (Glycine max) = settings: reduced by 10x unlabeled probe, strong binding; probe annealed in 50 mM NaCl; competitor in ten-fold excess; recombinant protein; protein details: GST (N-term, pGEX-4T-1)
[1] = biological target: T1, GmPHD4 PHD domain (Glycine max) (UniProt I1M961); settings: probe annealed in 50 mM NaCl; competitor in ten-fold excess; recombinant protein; protein details: GST (N-term, pGEX-4T-1)
T1 sequence (looked up, limits assumed): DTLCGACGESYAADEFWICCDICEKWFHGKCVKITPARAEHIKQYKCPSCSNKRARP

GmPHD4 VP (Glycine max) = biological target: T2, GmPHD4 VP (Glycine max) (UniProt I1M961); settings: slight, plus non-specific binding; probe annealed in 50 mM NaCl; competitor in ten-fold excess; recombinant protein; protein details: GST (N-term, pGEX-4T-1)
T2 sequence (looked up, limits assumed): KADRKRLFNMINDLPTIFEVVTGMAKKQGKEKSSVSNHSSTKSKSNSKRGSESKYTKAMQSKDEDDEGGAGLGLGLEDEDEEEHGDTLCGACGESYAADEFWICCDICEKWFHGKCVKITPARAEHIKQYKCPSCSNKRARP

“AATTCGGATCCGTGGAGGTGGAGGTGGAGGTGGAGGTGGAGGGTACCGAGCT / CGGTACCCTCCACCTCCACCTCCACCTCCACCTCCACGGATCCG [5x GTGGAG probe]”: binds (GST-GmPHD1 (Glycine max)); binds (GST-GmPHD2 (Glycine max)); binds (GST-GmPHD3 (Glycine max)). “AATTCGGATCCGTGGAGGTGGAGGTGGAGGTGGAGGTGGAGGGTACCGAGCT / CGGTACCCTCCACCTCCACCTCCACCTCCACCTCCACGGATCCG [5x GTGGAG probe]”: binds (GST-GmPHD4 (Glycine max)); binds more weakly [1]; binds more weakly (GmPHD4 VP (Glycine max)).

— article PMC2747011, “Soybean GmPHD-Type Transcription Regulators Improve Stress Tolerance in Transgenic Arabidopsis Plants”
